The target in the assay is Methyl-CpG-binding protein 2 (MECP2) (human (endogenous in hiPSC-derived neurons)) (UniProt P51608). Briefly: co-IP; nuclear lysate of human wild-type neurons probed with IgG or an antibody against MECP2, incubated two hours, precipitated with protein-A beads; western blot with an antibody against PARP1. On the technique in general: Immunoblotting shows a protein as a band on a membrane.

Sequences of proteins named here, by UniProt entry; tags and fusion partners are left off.
UniProt P51608: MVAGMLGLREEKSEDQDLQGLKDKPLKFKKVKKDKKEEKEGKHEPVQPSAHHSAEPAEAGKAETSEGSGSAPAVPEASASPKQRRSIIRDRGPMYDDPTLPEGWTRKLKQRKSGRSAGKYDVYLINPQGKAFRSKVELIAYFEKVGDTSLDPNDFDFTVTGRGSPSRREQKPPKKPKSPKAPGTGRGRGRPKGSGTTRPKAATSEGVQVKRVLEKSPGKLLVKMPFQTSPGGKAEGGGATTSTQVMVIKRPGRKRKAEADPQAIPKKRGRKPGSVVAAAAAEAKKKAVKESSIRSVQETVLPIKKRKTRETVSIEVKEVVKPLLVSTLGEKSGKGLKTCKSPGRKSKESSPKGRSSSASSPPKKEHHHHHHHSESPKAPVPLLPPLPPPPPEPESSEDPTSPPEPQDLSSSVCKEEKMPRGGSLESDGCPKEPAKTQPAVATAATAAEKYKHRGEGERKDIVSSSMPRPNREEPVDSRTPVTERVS
UniProt P09874: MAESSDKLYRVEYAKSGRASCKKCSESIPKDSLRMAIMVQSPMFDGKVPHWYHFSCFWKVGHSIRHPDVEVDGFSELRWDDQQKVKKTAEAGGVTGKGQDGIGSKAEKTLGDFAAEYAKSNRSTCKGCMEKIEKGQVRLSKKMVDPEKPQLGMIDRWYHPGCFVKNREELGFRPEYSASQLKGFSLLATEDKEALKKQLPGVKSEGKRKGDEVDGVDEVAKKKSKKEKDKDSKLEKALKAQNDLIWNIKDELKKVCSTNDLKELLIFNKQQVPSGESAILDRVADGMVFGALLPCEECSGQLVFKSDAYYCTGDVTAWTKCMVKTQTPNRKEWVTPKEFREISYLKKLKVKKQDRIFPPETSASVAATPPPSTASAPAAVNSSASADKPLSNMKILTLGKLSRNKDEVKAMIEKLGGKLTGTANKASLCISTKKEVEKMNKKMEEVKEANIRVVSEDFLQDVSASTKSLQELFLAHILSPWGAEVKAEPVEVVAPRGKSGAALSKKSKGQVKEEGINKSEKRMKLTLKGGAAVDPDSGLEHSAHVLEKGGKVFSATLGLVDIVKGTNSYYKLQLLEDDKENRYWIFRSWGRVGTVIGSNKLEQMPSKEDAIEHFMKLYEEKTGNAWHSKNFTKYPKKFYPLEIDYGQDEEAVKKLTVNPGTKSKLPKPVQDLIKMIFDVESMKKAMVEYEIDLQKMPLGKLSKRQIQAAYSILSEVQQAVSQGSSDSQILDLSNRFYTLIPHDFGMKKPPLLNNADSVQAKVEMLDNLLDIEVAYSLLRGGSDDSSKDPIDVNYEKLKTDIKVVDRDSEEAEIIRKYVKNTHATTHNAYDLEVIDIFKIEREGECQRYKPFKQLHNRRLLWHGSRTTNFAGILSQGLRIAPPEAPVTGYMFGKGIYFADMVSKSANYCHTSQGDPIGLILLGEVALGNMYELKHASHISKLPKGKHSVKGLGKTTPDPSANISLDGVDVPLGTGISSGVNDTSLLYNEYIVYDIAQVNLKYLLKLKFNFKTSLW

These are yes or no findings as the source states them, for the method shown. In cells and extracts the contact can be indirect. Some entries that bind do so weakly or less than the wild type.

Turning to “PARP1 (from UniProt P09874 1-1014) (enzyme)”, the binding entry is given as “binds”.

(Values after publication PMC12790717.)
